These are yes or no findings as the source states them, for the method shown. For some assays here: Binding seen in cells or lysates may run through a third protein. Some binding calls cover weakened binding; strength is not graded here. For some assays here: Tags and fused reporters may be left off the sequences shown.
Legend:
[1] = target: CD2221-282 (yeast two-hybrid construct) (human) (UniProt P06729); test: yeast two-hybrid
CD2221-299 (human) = CD2221-299 (human) (UniProt P06729); test: yeast two-hybrid
human CD2 (human) [2] = target: human CD2 (human) (UniProt P06729); test: co-immunoprecipitation from Jurkat transformants, anti-CD2 Western blot
human CD2 (human) [3] = target: human CD2 (human) (UniProt P06729); test: co-immunoprecipitation from COS7 cells, anti-FLAG Western blot
human CD2 (human) [4] = target: human CD2 (human) (UniProt P06729); test: co-immunoprecipitation with anti-FLAG mAb from Jurkat transfectants, anti-CD2 Western blot
human CD2 (human) [5] = target: human CD2 (human) (UniProt P06729); test: co-immunoprecipitation with anti-CD2 mAb from cotransfected COS7 cells, anti-FLAG Western blot
[6] = target: GST-fusion of the truncated CD2 tail (CD2221-282) (human) (UniProt P06729); test: in vitro co-immunoprecipitation on GST-CD2 beads, with and without ZnCl2
[7] = target: CD2 cytoplasmic region (CD2221-327) (human) (UniProt P06729); test: yeast two-hybrid

Amino acid sequences for entries named in this document (tags omitted). A change or cut given only in a name is not applied to a line headed by its entry. Residues count along the entry.
UniProt P06729: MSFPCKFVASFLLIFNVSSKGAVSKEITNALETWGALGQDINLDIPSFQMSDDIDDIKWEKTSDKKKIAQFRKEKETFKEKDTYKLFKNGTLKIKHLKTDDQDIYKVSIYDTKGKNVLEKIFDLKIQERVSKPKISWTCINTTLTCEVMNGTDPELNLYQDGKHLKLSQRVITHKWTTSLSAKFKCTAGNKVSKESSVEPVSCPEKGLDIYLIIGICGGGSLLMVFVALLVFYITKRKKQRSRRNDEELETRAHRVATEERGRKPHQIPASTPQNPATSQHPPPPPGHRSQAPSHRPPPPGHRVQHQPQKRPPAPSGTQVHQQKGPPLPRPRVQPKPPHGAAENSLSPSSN
human CD2: residues 25-351 of P06729
CD2 cytoplasmic region (CD2221-327): residues 245-351 of P06729
CD2221-299: residues 245-323 of P06729
GST-fusion of the truncated CD2 tail (CD2221-282): residues 245-306 of P06729

B1: CD2 binding protein 2 (CD2BP2) (protein)
chain: MPKRKVTFQGVGDEEDEDEIIVPKKKLVDPVAGSGGPGSRFKGKHSLDSDEEEDDDDGGSSKYDILASEDVEGQEAATLPSEGGGRITPFNLQEEMEEGHFDADGNYFLNRDAQIRDSWLDNIDWVKIRERPPGQRQASDSEEEDSLGQTSMSAQALLEGLLELLLPRETVAGALRRLGARGGGKGRKGPGQPSSPQRLDRLSGLADQMVARGNLGVYQETRERLAMRLKGLGCQTLGPHNPTPPPSLDMFAEELAEEELETPTPTQRGEAESRGDGLVDVMWEYKWENTGDAELYGPFTSAQMQTWVSEGYFPDGVYCRKLDPPGGQFYNSKRIDFDLYT
- binding [1]: binds
- binding (CD2221-299 (human)): binds

B2: FLAG-CD2BP2 (protein)
chain: DYKDDDDKMPKRKVTFQGVGDEEDEDEIIVPKKKLVDPVAGSGGPGSRFKGKHSLDSDEEEDDDDGGSSKYDILASEDVEGQEAATLPSEGGGRITPFNLQEEMEEGHFDADGNYFLNRDAQIRDSWLDNIDWVKIRERPPGQRQASDSEEEDSLGQTSMSAQALLEGLLELLLPRETVAGALRRLGARGGGKGRKGPGQPSSPQRLDRLSGLADQMVARGNLGVYQETRERLAMRLKGLGCQTLGPHNPTPPPSLDMFAEELAEEELETPTPTQRGEAESRGDGLVDVMWEYKWENTGDAELYGPFTSAQMQTWVSEGYFPDGVYCRKLDPPGGQFYNSKRIDFDLYT
- binding (human CD2 (human) [2]): binds
- binding (human CD2 (human) [3]): binds
- binding (human CD2 (human) [4]): binds
- binding (human CD2 (human) [5]): binds

B3: CD2BP2 GYF domain (protein)
chain: DVMWEYKWENTGDAELYGPFTSAQMQTWVSEGYFPDGVYCRKLDPPGGQFYNSKRIDFDLYT
- binding [6]: binds

B4: CD2BP2129-341 (protein)
chain: RERPPGQRQASDSEEEDSLGQTSMSAQALLEGLLELLLPRETVAGALRRLGARGGGKGRKGPGQPSSPQRLDRLSGLADQMVARGNLGVYQETRERLAMRLKGLGCQTLGPHNPTPPPSLDMFAEELAEEELETPTPTQRGEAESRGDGLVDVMWEYKWENTGDAELYGPFTSAQMQTWVSEGYFPDGVYCRKLDPPGGQFYNSKRIDFDLYT
- binding [7]: binds
